# In paper doi:10.1101/2021.01.25.428042:
# No constants are given. Whether binding was seen depends on the method and setting. Binding seen in cells or lysates may run through a third protein. Some binding calls cover weakened binding; strength is not graded here. For some assays here: Sequences can lack the tags named with a protein.
# T1: RIG-I (endogenous) (human (endogenous in HEK293 and A549)) (UniProt O95786)
# T1 sequence: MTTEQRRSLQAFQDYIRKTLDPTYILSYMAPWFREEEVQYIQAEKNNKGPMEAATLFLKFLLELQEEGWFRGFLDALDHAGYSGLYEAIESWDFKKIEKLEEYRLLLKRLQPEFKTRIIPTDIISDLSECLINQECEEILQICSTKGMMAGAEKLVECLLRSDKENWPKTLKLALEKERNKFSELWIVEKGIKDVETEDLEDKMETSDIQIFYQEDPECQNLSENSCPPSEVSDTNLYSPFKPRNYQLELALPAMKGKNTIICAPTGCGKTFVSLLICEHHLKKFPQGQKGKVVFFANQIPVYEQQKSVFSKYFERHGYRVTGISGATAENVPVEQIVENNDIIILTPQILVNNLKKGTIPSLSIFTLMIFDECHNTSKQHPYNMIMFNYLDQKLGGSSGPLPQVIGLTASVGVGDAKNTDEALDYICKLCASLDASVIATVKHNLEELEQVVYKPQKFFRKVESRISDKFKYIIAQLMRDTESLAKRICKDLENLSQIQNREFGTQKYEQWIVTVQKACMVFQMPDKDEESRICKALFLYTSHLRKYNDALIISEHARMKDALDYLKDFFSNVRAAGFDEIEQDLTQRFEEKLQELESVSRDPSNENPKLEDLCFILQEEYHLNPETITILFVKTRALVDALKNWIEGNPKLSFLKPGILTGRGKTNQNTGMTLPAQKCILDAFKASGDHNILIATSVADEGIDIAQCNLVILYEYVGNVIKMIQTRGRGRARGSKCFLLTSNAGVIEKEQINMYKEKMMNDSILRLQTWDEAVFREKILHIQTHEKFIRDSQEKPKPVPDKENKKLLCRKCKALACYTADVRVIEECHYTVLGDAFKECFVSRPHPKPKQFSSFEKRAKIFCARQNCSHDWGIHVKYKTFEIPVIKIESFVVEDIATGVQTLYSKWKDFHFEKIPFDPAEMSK
# T2: FLAG-tagged LGP2 (human (cDNA library from HEK293 cells)) (UniProt Q96C10)
# T2 sequence: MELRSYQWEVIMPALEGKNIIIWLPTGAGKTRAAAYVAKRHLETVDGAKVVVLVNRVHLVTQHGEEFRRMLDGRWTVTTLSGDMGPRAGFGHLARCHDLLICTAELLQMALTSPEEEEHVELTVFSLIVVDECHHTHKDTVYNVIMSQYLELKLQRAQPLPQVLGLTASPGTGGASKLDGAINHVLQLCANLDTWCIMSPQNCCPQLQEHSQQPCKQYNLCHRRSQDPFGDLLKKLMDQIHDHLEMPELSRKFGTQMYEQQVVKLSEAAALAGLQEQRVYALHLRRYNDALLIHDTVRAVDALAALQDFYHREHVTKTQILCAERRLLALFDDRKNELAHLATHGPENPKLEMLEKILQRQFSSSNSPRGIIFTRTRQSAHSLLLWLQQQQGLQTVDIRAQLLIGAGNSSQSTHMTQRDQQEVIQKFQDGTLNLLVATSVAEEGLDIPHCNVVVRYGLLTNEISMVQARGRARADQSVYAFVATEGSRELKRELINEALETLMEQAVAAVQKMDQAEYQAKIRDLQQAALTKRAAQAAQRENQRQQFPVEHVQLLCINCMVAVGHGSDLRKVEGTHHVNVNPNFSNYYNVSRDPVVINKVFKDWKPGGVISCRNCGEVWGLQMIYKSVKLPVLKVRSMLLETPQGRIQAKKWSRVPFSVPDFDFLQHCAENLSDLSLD
# B1: RIPLET (endogenous) (protein, UniProt Q8IUD6 1-432)
# chain: MAGLGLGSAVPVWLAEDDLGCIICQGLLDWPATLPCGHSFCRHCLEALWGARDARRWACPTCRQGAAQQPHLRKNTLLQDLADKYRRAAREIQAGSDPAHCPCPGSSSLSSAAARPRRRPELQRVAVEKSITEVAQELTELVEHLVDIVRSLQNQRPLSESGPDNELSILGKAFSSGVDLSMASPKLVTSDTAAGKIRDILHDLEEIQEKLQESVTWKEAPEAQMQGELLEAPSSSSCPLPDQSHPALRRASRFAQWAIHPTFNLKSLSCSLEVSKDSRTVTVSHRPQPYRWSCERFSTSQVLCSQALSSGKHYWEVDTRNCSHWAVGVASWEMSRDQVLGRTMDSCCVEWKGTSQLSAWHMVKETVLGSDRPGVVGIWLNLEEGKLAFYSVDNQEKLLYECTISASSPLYPAFWLYGLHPGNYLIIKQVKV
# B2: HA-tagged Riplet (protein, UniProt Q8IUD6 1-432)
# chain: B1 chain
# Key:
# [1] = target: T1, RIG-I (endogenous) (human (endogenous in HEK293 and A549)); assay: proximity ligation
# [2] = target: T2, FLAG-tagged LGP2 (human (cDNA library from HEK293 cells)); assay: proximity ligation
Binder,binding [1],binding [2]
B1,binds,
B2,,binds
